Measurements published in patent publication US20110015138A1 (GENUS ONCOLOGY, published 2011).
No constants are given. Whether binding was seen depends on the method and setting. For part of these data: In cells and extracts the contact can be indirect. Some entries that bind do so weakly or less than the wild type.

Protein sequences, listed by entry. Tags and fused reporters are not part of them. Lines headed by an entry give the natural chain unless they say otherwise; changes in a name come on top. Residues count along the entry.
UniProt Q04206: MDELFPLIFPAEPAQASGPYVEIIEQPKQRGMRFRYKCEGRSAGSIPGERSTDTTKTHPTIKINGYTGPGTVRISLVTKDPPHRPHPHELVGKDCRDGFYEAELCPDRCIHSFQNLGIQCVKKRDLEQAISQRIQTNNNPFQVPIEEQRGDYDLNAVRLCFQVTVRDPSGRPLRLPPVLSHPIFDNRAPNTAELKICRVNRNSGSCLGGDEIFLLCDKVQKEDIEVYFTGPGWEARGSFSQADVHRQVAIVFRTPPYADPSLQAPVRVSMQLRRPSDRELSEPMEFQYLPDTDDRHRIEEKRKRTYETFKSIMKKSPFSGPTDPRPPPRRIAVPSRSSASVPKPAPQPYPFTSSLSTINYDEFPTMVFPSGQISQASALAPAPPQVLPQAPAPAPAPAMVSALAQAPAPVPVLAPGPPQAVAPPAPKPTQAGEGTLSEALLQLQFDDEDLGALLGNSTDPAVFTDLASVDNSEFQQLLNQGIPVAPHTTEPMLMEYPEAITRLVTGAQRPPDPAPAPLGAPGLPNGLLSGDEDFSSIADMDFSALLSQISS
p65(1-180): residues 1-180 of Q04206
p65(186-306): residues 186-306 of Q04206
UniProt P40763: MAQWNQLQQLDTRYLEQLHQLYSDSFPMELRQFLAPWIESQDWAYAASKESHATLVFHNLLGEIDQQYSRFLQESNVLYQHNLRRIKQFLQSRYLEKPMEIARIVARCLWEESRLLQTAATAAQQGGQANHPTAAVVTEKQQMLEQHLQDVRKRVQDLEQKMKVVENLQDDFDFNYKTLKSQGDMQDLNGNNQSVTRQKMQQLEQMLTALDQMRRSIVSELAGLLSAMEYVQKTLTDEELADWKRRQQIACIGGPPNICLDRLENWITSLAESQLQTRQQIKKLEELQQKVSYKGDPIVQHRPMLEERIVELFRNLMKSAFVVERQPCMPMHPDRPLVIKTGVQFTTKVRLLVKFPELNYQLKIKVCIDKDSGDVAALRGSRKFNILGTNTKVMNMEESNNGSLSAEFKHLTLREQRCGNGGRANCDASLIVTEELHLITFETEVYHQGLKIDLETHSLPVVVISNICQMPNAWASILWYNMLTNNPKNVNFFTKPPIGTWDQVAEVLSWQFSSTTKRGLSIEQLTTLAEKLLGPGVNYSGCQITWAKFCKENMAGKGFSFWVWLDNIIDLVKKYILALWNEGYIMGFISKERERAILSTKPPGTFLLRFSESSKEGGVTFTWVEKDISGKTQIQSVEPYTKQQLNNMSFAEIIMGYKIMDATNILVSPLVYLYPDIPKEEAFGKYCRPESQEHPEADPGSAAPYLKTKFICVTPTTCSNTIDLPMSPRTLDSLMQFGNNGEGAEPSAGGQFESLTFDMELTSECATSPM
GST-STAT3 (DBD; amino acids 257-514): residues 257-514 of P40763
UniProt P25963: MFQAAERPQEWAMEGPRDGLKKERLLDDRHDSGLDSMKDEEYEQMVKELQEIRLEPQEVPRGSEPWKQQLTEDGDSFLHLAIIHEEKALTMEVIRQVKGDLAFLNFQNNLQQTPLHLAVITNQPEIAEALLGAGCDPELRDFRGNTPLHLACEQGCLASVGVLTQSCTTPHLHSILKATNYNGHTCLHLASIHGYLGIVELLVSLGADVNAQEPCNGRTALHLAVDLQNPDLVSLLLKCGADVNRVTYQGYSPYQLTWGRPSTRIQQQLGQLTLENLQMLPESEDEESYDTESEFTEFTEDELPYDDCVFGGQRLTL

Assays:
p65(186-306) [1] = biological target: p65(186-306) (UniProt Q04206); assay: GST pull-down of purified p65(186-306), immunoblot anti-p65
p65(186-306) [2] = biological target: p65(186-306) (UniProt Q04206); assay: GST pull-down with purified proteins (discussion of the results)
[3] = biological target: T1, NF-κB p65 (in cells / cell lysates) (human, UniProt Q04206 1-551); assay: GST pull-down from ZR-75-1 cell lysates, immunoblot anti-p65
T1 construct: Endogenous protein of the cell lines

[4] = biological target: T2, purified recombinant NF-κB p65 (UniProt Q04206 1-551, limits assumed); assay: GST pull-down of purified recombinant p65, immunoblot anti-p65
T2 construct: also called purified NF-κB p65

[5] = biological target: purified recombinant STAT3 (UniProt P40763 1-770, limits assumed); assay: GST pull-down of purified recombinant STAT3, immunoblot anti-STAT3
Description: FIGS. 9A-D: MUC1-C binds directly to the STAT3 DBD. (FIG. 9A) Lysates from ZR-75-1 (left) and MCF-7 (right) cells were subjected to immunoprecipitation with anti-STAT3 or a control IgG. The precipitates were immunoblotted with the indicated antibodies. (FIG. 9B) Lysates from ZR-75-1 cells were incubated with GST and GST-MUC1-CD bound to glutathione beads. The adsorbates were immunoblotted with anti-STAT3 Input of the GST and GST-MUC1-CD proteins was assessed by Coomassie blue staining. (FIG. 9C) Amino acid sequence of the MUC1 cytoplasmic domain is shown with the indicated phosphorylation and binding sites. GST, GST-MUC1-CD, GST-MUC1-CD (1-45) and GST-MUC1-CD (46-72) bound to glutathione beads were incubated with purified recombinant STAT3. The adsorbates were immunoblotted with anti-STAT3. Input of the GST and GST-MUC1-CD fusion proteins was assessed by Coomassie blue staining. (FIG. 9D) Structure of STAT3. GST, GST-STAT3 (full length; amino acids 1-770), […], […] and […] bound to glutathione beads were incubated with purified MUC1-CD. Adsorbates were immunoblotted with anti-MUC1-C. Input of the GST and GST-STAT3 fusion proteins was assessed by Coomassie blue staining.
MUC1-C directly interacts with STAT3. […]

p65(1-180) [6] = biological target: p65(1-180) (UniProt Q04206); assay: GST pull-down of purified p65(1-180) (figure legend)
[7] = biological target: T3, STAT3 (in cells / cell lysates) (human, UniProt P40763 2-770); assay: GST pull-down from ZR-75-1 cell lysates, immunoblot anti-STAT3
T3 construct: Endogenous protein of the cell lines

[8] = biological target: T2, purified recombinant NF-κB p65; assay: GST pull-down (figure legend)
p65(1-180) [9] = biological target: p65(1-180) (UniProt Q04206); assay: GST pull-down of purified p65(1-180), immunoblot anti-p65
p65(186-306) [10] = biological target: p65(186-306) (UniProt Q04206); assay: GST pull-down of purified p65(186-306) (figure legend)
p65(1-180) [11] = biological target: p65(1-180) (UniProt Q04206); assay: GST pull-down with purified proteins (discussion of the results)
[12] = biological target: T2, purified recombinant NF-κB p65; assay: as above
p65(186-306) [13] = biological target: p65(186-306) (UniProt Q04206); assay: competition: GST-IκBα pull-down of p65(186-306) with increasing amounts of MUC1-CD; competitor GST-IκBα
[14] = biological target: GST-STAT3 (DBD; amino acids 257-514) (UniProt P40763); assay: GST-STAT3 fragments pull-down of purified MUC1-CD (figure legend)
[15] = biological target: GST-STAT3 (DBD; amino acids 257-514) (UniProt P40763); assay: GST pull-down with purified proteins (discussion of the results)
[16] = biological target: GST-STAT3 (DBD; amino acids 257-514) (UniProt P40763); assay: GST-STAT3 deletion mutants on glutathione beads incubated with purified MUC1-CD, immunoblot anti-MUC1-C

Measured: binding

GST-IκBα (from UniProt P25963 1-317)
binds: p65(186-306) [1] | p65(186-306) [2]

GST-MUC1-CD (from UniProt P15941 1184-1255)
binds: p65(186-306) [1] | [3] | [4] | [5] | p65(1-180) [6] | [7] | [8] | p65(1-180) [9] | p65(186-306) [10] | p65(186-306) [2] | p65(1-180) [11] | [12]

B1: MUC1-CD (purified, GST moiety removed with thrombin) (other)
chain: CQCRRKNYGQLDIFPARDTYHPMSEYPTYHTHGRYVPPSSTDRSPYEKVSAGNGGSSLSYTNPAVAATSANL
notes: also called purified MUC1-CD; MUC1-C cytoplasmic domain
binds: p65(186-306) [13] | [14] | [15] | [16]
